Some peptides are written in HELM: one residue between dots, names in brackets for other building blocks, links after the first $.
Assay: peptide synthesis
Details: whole synthesis, 220 nm

PEPTIDE1{Y.G.S.D}$$$$V2.0
purity (crude or final not stated): 95%
